For 1 molecule, binding results are on record in US20160298128A1.

The chains behind the UniProt entries cited, without tags or fusion partners.
UniProt P23321: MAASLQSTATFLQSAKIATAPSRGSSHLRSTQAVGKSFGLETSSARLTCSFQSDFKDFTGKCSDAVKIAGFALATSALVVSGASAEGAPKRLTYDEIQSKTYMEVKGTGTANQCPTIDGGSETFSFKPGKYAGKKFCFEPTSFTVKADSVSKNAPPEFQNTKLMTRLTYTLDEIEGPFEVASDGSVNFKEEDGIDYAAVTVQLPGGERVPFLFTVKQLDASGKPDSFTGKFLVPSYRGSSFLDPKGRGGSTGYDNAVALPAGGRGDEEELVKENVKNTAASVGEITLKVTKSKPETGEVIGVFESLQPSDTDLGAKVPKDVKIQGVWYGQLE

The experiment addresses SCFPC-PsbO1 (C-terminus fragment of super cyan fluorescent protein fused to the N-terminus of PsbO1) (Arabidopsis thaliana) (UniProt P23321). Kind of experiment: BiFC, transient expression in cotyledons.

These are yes or no findings as the source states them, for the method shown. Some results given as binding are weak or reduced against the parent protein; the word gives no strength. Where a sequence is shown, tags or fusion partners need not be part of it.

B1: VenusN-AtCV (N-terminus fragment of yellow fluorescent protein Venus fused to the N-terminus of AtCV) (protein, not shown: small tags and cut ends)
chain: MAGRISCCLNLPPLDSNSAQSLASLLKTTSKISCRRTENETEPRKNKCSFVLGVAATVVIGGIQINDVASVEAAVVKSPVEEMAAGVVPPRRWSDKRTCPPWLENSLETIVPENLPRPSAHRRLELAGLAKGDAPPVGVVMTRVNRGGCFSV
For B1, the binding entry is on record as “binds”.
